The record followed here is patent US7985832B2 (Kansas State University Research Foundation, priority 2005, dated 2011).

The nature of this data set: peptide made by a vendor. Particulars: whole synthesis, RP-HPLC.

Strings that start with PEPTIDE1 are HELM notation: dots part the residues, brackets hold end groups and non-standard residues.

For the substance “PEPTIDE1{R.L.K.E.L.I.T.T.G.G.Q.K.I.G.E.K.I.R.R.I.G.Q.R.I.K.D.F.F.K.N.L.Q.P.R.E.E.K.S}$$$$V2.0”, the “final HPLC purity” value is listed as over 99%.
